These results are taken from paper doi:10.1101/2024.12.02.626298.

In one experiment the target is CrsL-FLAG (M. smegmatis) (UniProt A0R4M8). The experiment is described as follows: co-IP.
A further experiment concerns the target CrsL-His (M. smegmatis) (UniProt A0R4M8). The experiment is described as follows: far-Western, overlay or dot blot.

No constants are given. Whether binding was seen depends on the method and setting. Binding can be weak; no strength is given. For part of these data: Binding seen in cells or lysates may run through a third protein.

On to CarD (from UniProt A0R561 1-162), for which the binding entry with CrsL-FLAG (M. smegmatis) was “binds”. In the case of CarD-NT (from UniProt A0R561 1-162), the binding entry with CrsL-His (M. smegmatis) is reported as “binds”. On to “DnaK chaperon protein (MSMEG_0709) (from UniProt A0QQC8 1-622)”, for which the binding result in the experiment with CrsL-FLAG (M. smegmatis) is reported as “binds”.
